Measured values as given in publication doi:10.1101/2025.09.22.677165.
No constants are given. Whether binding was seen depends on the method and setting. For some of these results: In cells and extracts the contact can be indirect. Some binding calls cover weakened binding; strength is not graded here.

The chains behind the UniProt entries cited, without tags or fusion partners.
UniProt P24864: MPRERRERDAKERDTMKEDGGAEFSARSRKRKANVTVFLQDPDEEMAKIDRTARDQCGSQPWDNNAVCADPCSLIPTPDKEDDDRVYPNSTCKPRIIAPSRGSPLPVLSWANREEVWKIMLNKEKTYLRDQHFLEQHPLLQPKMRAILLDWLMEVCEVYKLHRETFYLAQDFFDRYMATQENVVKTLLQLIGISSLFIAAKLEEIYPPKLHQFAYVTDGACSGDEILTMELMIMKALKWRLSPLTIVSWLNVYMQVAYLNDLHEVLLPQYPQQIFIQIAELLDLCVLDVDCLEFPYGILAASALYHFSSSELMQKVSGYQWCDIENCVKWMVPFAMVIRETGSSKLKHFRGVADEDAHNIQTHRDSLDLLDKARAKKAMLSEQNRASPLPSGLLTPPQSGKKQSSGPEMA
UniProt P17302: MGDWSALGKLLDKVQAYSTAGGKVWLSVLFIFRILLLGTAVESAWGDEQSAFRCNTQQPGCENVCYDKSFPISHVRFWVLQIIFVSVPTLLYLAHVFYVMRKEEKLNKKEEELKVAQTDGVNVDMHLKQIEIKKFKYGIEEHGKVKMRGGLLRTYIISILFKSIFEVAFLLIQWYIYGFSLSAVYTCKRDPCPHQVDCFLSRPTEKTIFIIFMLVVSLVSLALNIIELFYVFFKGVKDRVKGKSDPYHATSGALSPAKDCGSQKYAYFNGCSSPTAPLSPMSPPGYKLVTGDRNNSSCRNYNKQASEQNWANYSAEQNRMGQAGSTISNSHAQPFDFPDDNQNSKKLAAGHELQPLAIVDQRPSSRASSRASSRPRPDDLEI

How the values were obtained:
[1] = target: T1, Off-target (OT) peptide sequence (…, 15 a.a.) on the peptide array (mouse); experiment: peptide or protein array
T1 sequence (peptide): AYFNGCSSPTAPLDP

[2] = target: T2, Peptide-1 sequence (…, 11 a.a.) on the peptide array (mouse); experiment: peptide or protein array
T2 sequence (peptide): GVKDRVKGRSD

[3] = target: T3, Peptide-2 sequence (…, 22 a.a.) on the peptide array (mouse); experiment: peptide or protein array
T3 sequence (peptide): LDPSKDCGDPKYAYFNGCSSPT

[4] = target: cyclin E, endogenous in human coronary artery smooth muscle cells (human (endogenous in CASMC)) (UniProt P24864); experiment: co-IP

| Substance | binding [1] | binding [2] | binding [3] | binding [4] |
| --- | --- | --- | --- | --- |
| Full-length cyclin E-GST protein (from UniProt P24864 1-410) | no binding (tested: 2.86 mg/mL cyclin E) | binds | binds | – |
| connexin 43 (Cx43), endogenous in human coronary artery smooth muscle cells (from UniProt P17302 1-382) | – | – | – | binds |
